Results: PMC11530130, “Peripherally restricted PICK1 inhibitor mPD5 ameliorates pain behaviors in murine inflammatory and neuropathic pain models” (JCI Insight, 2024)
“And” between values parts separate entries of the source, which are not always exact repeats. Identical values can stand only once. The source gives many values for each of these; only a part stands here.

System: mice, spared nerve injury (SNI) model
Assay: SNI model of neuropathic pain, von Frey, single s.c. dose, male mice day 7
Assay type: in vivo, mouse
Conditions: for paw withdrawal threshold (von Frey), individual mice: SNI day 7, listed as Myr
Method: Induction of neuropathic pain (SNI model).
The initial SNI pain experiment (Figure 4A) was performed by Phenotype Expertise, Marseilles, France – Pain and CNS behaviour CRO under supervision of Stéphane Gaillard, PhD (CEO). Surgery was performed on 8-week-old C57BL/6J male mice (Charles River). The spared nerve injury surgery was performed on anaesthetized mice with a buprenorphine […]
solution (0.05 mg/kg) injected s.c. 30 min before surgery (10 μL/g). For surgery, mice were anaesthetised with ketamine (100 mg/kg, i.p.) and xylazine (10 mg/kg, i.p.) (volume 10 µL/g) with 100 μL of 1% xylocaine solution infiltrated at the site of the incision. The distal trifurcation of the sciatic nerve was identified, and the tibial and common peroneal branches were ligated with polypropylene nonabsorbable 6-0 sutures (Ethicon) and 1 mm was cut out, leaving the sural branch intact. The wound was closed with sutures, and the animals were allowed to recover and returned to their cages. Two subcutaneous injections of buprenorphine (0.05 mg/kg) were performed with an 8 to 12 hours delay decreasing pain due to the surgery […]
act. seven days post-surgery, a decrease of threshold response to von Frey filaments of […]
ipsilateral hind-paw was confirmed by von Frey filaments, corresponding to neuropathic pain […]
condition. The mechanical threshold response of the operated mice was measured with […]
calibrated von Frey filaments (“up/down” method) and the 50% threshold (g) was calculated.
The remaining SNI pain experiments were performed in-house using the following procedure.
SNI surgery was performed on the left hindleg of C57BL/6J male and female mice (Janvier, France) under 2% isoflurane anaesthesia. Skin on the lateral surface was incised between hip and knee followed by lengthwise division of the biceps femoris muscle leading to exposure of the three branches of the sciatic nerve. Sural branch was left intact, while the peroneal and tibial branches were ligated with a single surgical knot and axotomized distally of the ligation.
Wounds were closed with surgical glue or medical clips and animals were monitored daily for signs of stress or discomfort, but in all cases recovered uneventfully.
Induction of Diabetic neuropathy (STZ model).
Diabetes was induced by a single i.p. injection of […] streptozocin (STZ) solution (100 μL/10 g, Sigma-Aldrich S0130, batch #WXBB7152V) in male seven-week-old C57BL/6J (Charles River) mice. Glycemia was tested before, and seven days after injection. All injected mice had blood glucose concentration >350 mg/dL from day seven and were used for analgesic testing of the compounds from day 14. One mouse had to be euthanized at seven days post injection. This experiment was performed by Phenotype Expertise, Marseilles, France - Pain and CNS behaviour CRO under supervision of Stéphane Gaillard, PhD (CEO).
Induction of cancer induced bone pain (CIBP model).
Osteosarcoma cell line NCTC 2472 (American Type Culture Collection, CCL-11TM) was cultured for two weeks prior to surgery in NCTC-135 medium (Sigma-Aldrich, Denmark) supplemented with sodium hydrogen carbonate and 10% equine serum (Sigma-Aldrich, Denmark). On the day of surgery, cells were washed with PBS and incubated with 3 mL trypsin-EDTA for five min followed by centrifugation (2800 rpm, 3 min). Supernatant was removed, and cell pellet resuspended in PBS to obtain a cell density of 10^7 cells/mL.
Two separate cohorts of female C3H/HeNHsd mice (Envigo, Netherlands) of 7-8 weeks, were anaesthetized with 6.25 mg/kg xylazine (Rompun vet, 20 mg/mL, Bayer, KVP Pharma + Veterinär Produkte GmbH, Germany, Batch: KV02BHF) and 43.75 mg/kg ketamine (Ketaminol vet, 100 mg/mL, MSD Animal Health, AN Boxmeer, The Netherlands, Batch:
A140A01) and received 1.0-1.2% isoflurane (1000 mg/g isoflurane, Attane vet, ScanVet, Piramal Critical Care Ltd., UK, Batch: G123J18B) during surgery. The mouse was placed on a 37 °C heating pad. Both hind legs were shaved, and a small horizontal incision was made […]

Structure (SMILES): CCCCCCCCCCCCCC(=O)N(CCOCCOCCC(=O)N[C@@H](Cc1c[nH]cn1)C(=O)N[C@@H](Cc1c[nH]c2ccccc12)C(=O)N[C@@H](CC(C)C)C(=O)N[C@@H](CCCCN)C(=O)N[C@H](C(=O)O)C(C)C)CCOCCOCCC(=O)N[C@@H](Cc1c[nH]cn1)C(=O)N[C@@H](Cc1c[nH]c2ccccc12)C(=O)N[C@@H](CC(C)C)C(=O)N[C@@H](CCCCN)C(=O)N[C@H](C(=O)O)C(C)C [mPD5, myristoyl-NPEG4-(HWLKV)2]
- paw withdrawal threshold (von Frey), individual mice (s.c. 2 μmol/kg, contralateral paw, 1 h): 0.674 and 0.829 (2×) and 0.539 and 1.019 and 0.68
- paw withdrawal threshold (von Frey), individual mice (s.c. 2 μmol/kg, contralateral paw, 2 h): 0.829 and 0.891 and 0.323 and 0.551 and 0.387 and 0.68
- paw withdrawal threshold (von Frey), individual mice (s.c. 2 μmol/kg, contralateral paw, 3 h): 1.149 and 2.127 and 0.68 and 0.356 and 0.457 and 0.219
- paw withdrawal threshold (von Frey), individual mice (s.c. 2 μmol/kg, contralateral paw, 4 h): 0.349 and 1.09 and 0.565 and 0.939 and 0.68 and 0.674
- paw withdrawal threshold (von Frey), individual mice (s.c. 2 μmol/kg, contralateral paw, 6 h): 0.939 and 0.674 and 0.683 and 0.539 and 0.398 and 0.769
- paw withdrawal threshold (von Frey), individual mice (s.c. 2 μmol/kg, ipsilateral paw, 1 h): 0.398 and 0.445 and 0.162 and 0.323 and 0.145 and 0.219
- paw withdrawal threshold (von Frey), individual mice (s.c. 2 μmol/kg, ipsilateral paw, 2 h): 0.356 (2×) and 0.07 and 0.195 and 0.219 and 0.107
- paw withdrawal threshold (von Frey), individual mice (s.c. 2 μmol/kg, ipsilateral paw, 3 h): 0.356 and 0.145 and 0.038 and 0.07 and 0.132 and 0.219
- paw withdrawal threshold (von Frey), individual mice (s.c. 2 μmol/kg, ipsilateral paw, 4 h): 0.195 and 0.07 (2×) and 0.079 and 0.107 and 0.074
- paw withdrawal threshold (von Frey), individual mice (s.c. 2 μmol/kg, ipsilateral paw, 6 h): 0.07 (4×) and 0.162 and 0.132
- paw withdrawal threshold (von Frey), individual mice (s.c. 10 μmol/kg, contralateral paw, 1 h): 1.149 and 1.785 and 1.348 and 0.387 and 0.674 and 1.004
- paw withdrawal threshold (von Frey), individual mice (s.c. 10 μmol/kg, contralateral paw, 2 h): 0.829 and 1.149 (2×) and 0.891 and 0.939 and 0.725
- paw withdrawal threshold (von Frey), individual mice (s.c. 10 μmol/kg, contralateral paw, 3 h): 0.551 and 1.09 and 0.939 and 0.539 and 0.767 and 1.149
- paw withdrawal threshold (von Frey), individual mice (s.c. 10 μmol/kg, contralateral paw, 4 h): 0.767 and 0.939 and 1.09 and 0.829 and 0.906 and 0.551
- paw withdrawal threshold (von Frey), individual mice (s.c. 10 μmol/kg, contralateral paw, 6 h): 0.683 and 0.767 (2×) and 0.939 and 0.539 and 0.725
- paw withdrawal threshold (von Frey), individual mice (s.c. 10 μmol/kg, ipsilateral paw, 1 h): 0.323 and 0.356 and 0.539 and 0.565 and 0.387 and 0.551
- paw withdrawal threshold (von Frey), individual mice (s.c. 10 μmol/kg, ipsilateral paw, 2 h): 0.683 and 0.674 and 0.398 (2×) and 0.906 and 0.767
- paw withdrawal threshold (von Frey), individual mice (s.c. 10 μmol/kg, ipsilateral paw, 3 h): 0.445 and 0.674 and 0.162 and 0.398 and 0.829 and 0.683
- paw withdrawal threshold (von Frey), individual mice (s.c. 10 μmol/kg, ipsilateral paw, 4 h): 0.219 and 0.152 and 0.263 and 0.398 and 0.07 and 0.441
- paw withdrawal threshold (von Frey), individual mice (s.c. 10 μmol/kg, ipsilateral paw, 6 h): 0.089 and 0.107 and 0.228 and 0.162 and 0.07 and 0.145
- von Frey paw withdrawal threshold, individual animals (Fig 5B) (dose group 2, contra, time 1): 1.4
- von Frey paw withdrawal threshold, individual animals (Fig 5B) (dose group 2, contra, time 5): 1 (3×) and 1.4 (3×)
- von Frey paw withdrawal threshold, individual animals (Fig 5B) (dose group 2, contra, time 24): 1.4 (4×) and 1 (2×)
- von Frey paw withdrawal threshold, individual animals (Fig 5B) (dose group 2, injured side, time 5): 0.4 and 0.16 (2×) and 0.6 and 1 and 0.07
- von Frey paw withdrawal threshold, individual animals (Fig 5B) (dose group 2, injured side, time 24): 0.16 (2×) and 0.07 (3×) and 0.4
- von Frey paw withdrawal threshold, individual animals (Fig 5B) (dose group 10, contra, time 5): 1.4 (4×) and 1 (2×)
- von Frey paw withdrawal threshold, individual animals (Fig 5B) (dose group 10, contra, time 24): 1 (4×) and 1.4 (2×)
- von Frey paw withdrawal threshold, individual animals (Fig 5B) (dose group 10, injured side, time 5): 1 (2×) and 0.6 and 0.16 (2×) and 0.4
- von Frey paw withdrawal threshold, individual animals (Fig 5B) (dose group 10, injured side, time 24): 0.07 (4×) and 0.16 (2×)
- von Frey paw withdrawal threshold, individual animals (Fig 5B) (dose group 50, contra, time 5): 1.4 (2×) and 1 (4×)
- von Frey paw withdrawal threshold, individual animals (Fig 5B) (dose group 50, contra, time 24): 1.4 (3×) and 1 (3×)
- von Frey paw withdrawal threshold, individual animals (Fig 5B) (dose group 50, injured side, time 5): 0.07 and 0.16 (2×) and 0.6 (2×) and 1
- von Frey paw withdrawal threshold, individual animals (Fig 5B) (dose group 50, injured side, time 24): 0.16 (3×) and 0.07 (2×) and 0.4
